We go through 5 molecules from article doi:10.1101/2023.12.22.573053.

The test concerns the target T1, SNRNP35 (ProteinA-TEV-3×HA-tagged) (human) (UniProt Q16560).
T1 sequence: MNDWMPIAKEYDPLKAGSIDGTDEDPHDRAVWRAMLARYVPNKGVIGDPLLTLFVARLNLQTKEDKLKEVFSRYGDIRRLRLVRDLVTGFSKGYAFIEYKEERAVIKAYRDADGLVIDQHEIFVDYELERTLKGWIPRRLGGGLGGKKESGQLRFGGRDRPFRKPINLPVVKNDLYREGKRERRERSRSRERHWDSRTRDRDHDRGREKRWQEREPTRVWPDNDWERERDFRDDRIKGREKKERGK
The test can be described thus: affinity purification with mass spectrometry.

No constants are given. Whether binding was seen depends on the method and setting. In cells and extracts the contact can be indirect. These calls come from enrichment with a bait or labelling near it, and not all partners need be listed. Where a sequence is shown, tags or fusion partners need not be part of it.

B1: SNRNP48 (protein, UniProt Q6IEG0 1-339)
chain: MEGEPPPVEERRRLQEELNEFVESGCRTLEEVTASLGWDLDSLDPGEEEAAEDEVVICPYDSNHHMPKSSLAKHMASCRLRKMGYTKEEEDEMYNPEFFYENVKIPSITLNKDSQFQIIKQARTAVGKDSDCYNQRIYSSLPVEVPLNHKRFVCDLTQADRLALYDFVVEETKKKRSDSQIIENDSDLFVDLAAKINQDNSRKSPKSYLEILAEVRDYKRRRQSYRAKNVHITKKSYTEVIRDVINVHMEELSNHWQEEQEKAEDDAEKNEERRSASVDSRQSGGSYLDAECSRHRRDRSRSPHKRKRNKDKDKNCESRRRKERDGERHHSHKRRKQKI
Take B1: the binding entry is recorded as “binds”.

B2: RNPC3 (protein, UniProt Q96LT9 1-517)
chain: MAAPEQPLAISRGCTSSSSLSPPRGDRTLLVRHLPAELTAEEKEDLLKYFGAQSVRVLSDKGRLKHTAFATFPNEKAAIKALTRLHQLKLLGHTLVVEFAKEQDRVHSPCPTSGSEKKKRSDDPVEDDKEKKELGYLTVENGIAPNHGLTFPLNSCLKYMYPPPSSTILANIVNALASVPKFYVQVLHLMNKMNLPTPFGPITARPPMYEDYMPLHAPLPPTSPQPPEEPPLPDEDEELSSEESEYESTDDEDRQRMNKLMELANLQPKRPKTIKQRHVRKKRKIKDMLNTPLCPSHSSLHPVLLPSDVFDQPQPVGNKRIEFHISTDMPAAFKKDLEKEQNCEEKNHDLPATEVDASNIGFGKIFPKPNLDITEEIKEDSDEMPSECISRRELEKGRISREEMETLSVFRSYEPGEPNCRIYVKNLAKHVQEKDLKYIFGRYVDFSSETQRIMFDIRLMKEGRMKGQAFIGLPNEKAAAKALKEANGYVLFGKPMVVQFARSARPKQDPKEGKRKC
As to B2, the binding result is reported as “binds”.

B3: PDCD7 (protein, UniProt Q8N8D1 1-485)
chain: MALPPFFGQGRPGPPPPQPPPPAPFGCPPPPLPSPAFPPPLPQRPGPFPGASAPFLQPPLALQPRASAEASRGGGGAGAFYPVPPPPLPPPPPQCRPFPGTDAGERPRPPPPGPGPPWSPRWPEAPPPPADVLGDAALQRLRDRQWLEAVFGTPRRAGCPVPQRTHAGPSLGEVRARLLRALRLVRRLRGLSQALREAEADGAAWVLLYSQTAPLRAELAERLQPLTQAAYVGEARRRLERVRRRRLRLRERAREREAEREAEAARAVEREQEIDRWRVKCVQEVEEKKREQELKAAADGVLSEVRKKQADTKRMVDILRALEKLRKLRKEAAARKGVCPPASADETFTHHLQRLRKLIKKRSELYEAEERALRVMLEGEQEEERKRELEKKQRKEKEKILLQKREIESKLFGDPDEFPLAHLLEPFRQYYLQAEHSLPALIQIRHDWDQYLVPSDHPKGNFVPQGWVLPPLPSNDIWATAVKLH
For the molecule B3, the binding entry was “binds”.

B4: ZMAT5 (protein, UniProt Q9UDW3 1-170)
chain: MGKRYFCDYCDRSFQDNLHNRKKHLNGLQHLKAKKVWYDMFRDAAAILLDEQNKRPCRKFLLTGQCDFGSNCRFSHMSERDLQELSIQVEEERRAREWLLDAPELPEGHLEDWLEKRAKRLSSAPSSRAEPIRTTVFQYPVGWPPVQELPPSLRAPPPGGWPLQPRVQWG
Consider B4, for which the binding entry is on record as “binds”.

B5: SNRNP25 (protein, UniProt Q9BV90 1-132)
chain: MDVFQEGLAMVVQDPLLCDLPIQVTLEEVNSQIALEYGQAMTVRVCKMDGEVMPVVVVQSATVLDLKKAIQRYVQLKQEREGGIQHISWSYVWRTYHLTSAGEKLTEDRKKLRDYGIRNRDEVSFIKKLRQK
As for B5, the binding entry was “binds”.
